Experiment: Comment Code material properties: vapor pressure, ClogP, probability of ingredient color instability, odor detection threshold, melamine formaldehyde PMC headspace response ratio and leakage, liquid dish neat product liquid-air partition coefficient
Format: physicochemical
Conditions: Table 1 materials; each letter of the code is one property class (vapor pressure, ClogP, color instability, odor detection threshold, PMC headspace ratio, PMC leakage, liquid dish liquid-air partition coefficient)

| Comment Code | Compound |
| --- | --- |
| DEFHJKL | CCCCCCC[C@H]1CCC(=O)O1 [Material 885] |
| DEFHJKL | CCCCCCC[C@@H]1CCC(=O)O1 [Material 886] |
